Results on 1 molecule are retold here after patent US20250216395A1.

This experiment deals with aNRP2-36v2. Briefly: Western blot competition: 1 ug/mL aNRP2-36v2 with 5 ug/mL control peptide, detection of NRP2v2 (23-855) and of NRP2a isoform 2 in lysate.

Results are given in words; binding and its absence hold for the method and conditions named.

B1: control peptide (peptide)
peptide: VDIPEIHEREGY
For the molecule B1, the binding result is recorded as “no binding (tested: 5 ug/mL)”.
